Values of other authors in patent publication US20070212428A1, “METHODS AND COMPOSITIONS FOR TREATING MOOD DISORDER” (MOOD MANAGEMENT SCIENCES, INC., priority 2004, published 2007).

Legend:
[1] = cited from earlier work
[2] = test system: adrenergic (α1, α2, β), cholinergic, GABA, dopaminergic, histaminergic, serotonergic (5-HT1A, 5-HT1B, 5-HT2), or benzodiazepine receptors; details: cited from earlier work

| SMILES | plasma concentrations ([1]; after 30 days of dosing at 40 mg/day) [ng/mL] | affinity [2] | time to steady state plasma concentrations ([1]; daily dosing) |
| --- | --- | --- | --- |
| CNCCC(Oc1ccc(C(F)(F)F)cc1)c1ccccc1.Cl (racemic) [fluoxetine, (±)-N-methyl-3-phenyl-[(α,α,α-trifluoro-p-tolyl)oxyl]propylamine hydrochloride] | 91 to 302 |  |  |
| CN[C@H]1CC[C@@H](c2ccc(Cl)c(Cl)c2)c2ccccc21.Cl [sertraline, (1S-cis)-4-(3,4-dichlorophenyl)-1,2,3,4-tetrahydro-N-methyl-1-naphthylamine hydrochloride] |  | no significant affinity | approximately 1 week |
